Laboratory results as given in PMC8382911 (Molecular Biology and Evolution, 2021).
Results are given in words; binding and its absence hold for the method and conditions named.

Biological target: Haloferax volcanii malate dehydrogenase (Haloferax volcanii) (UniProt Q9P9L2)
Experiment: condition: only in 0.2 M KCl (protein at 0.1 mg/ml); AUC; sedimentation velocity, 20 °C, 0.1 mg/ml, 50 mM Tris pH 7.0, 0.2 M KCl, after 24 h incubation; both purified

binding: no binding
B1: Haloferax volcanii malate dehydrogenase (enzyme, UniProt Q9P9L2 1-304, looked up)
chain: MTKVSVIGAAGTVGAAAGYNLALRDVCDELVFVDIPKMEDKTVGQAADTNHGIAYDSNTVVTQGGYEDTAGSDVVVITAGIPRQPGQTRIDLAGDNAPIMDDIGSSLAEYNDDFVSITTSNPVDLLNRHLYETGDRDRHKVIGFGGRLDSARFRYVLSQRFDVPVKNVDATILGEHGDAQVPVFSKVRVDGNDPAFSADEKEEILGDLQESAMDVIERKGATQWGPATGVAHMVEAVLHDTGEVLPGSLVLDGEFGYEDTAFGVPVKLGSNGIEEVVEWDLDDYEADLMDDAAEKLRDQYDEIA
notes: malate dehydrogenase (MalDH) of Haloferax volcanii; S6-S8; Tetramer in molar KCl; the oligomeric state depends on salt type and concentration (monomer in 0.2 M KCl); also called H. volc MalDH; MalDH of H. volcanii
